According to the supplement of paper PMC4604168 (melanoma cell lines):
The list shows a part of the results. Single values are uncertain, as repeats are few or missing.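 Cells were imaged in 1,536-well plates, and nuclei stained with an antibody against cleaved PARP were counted against all DNA-stained nuclei to give the apoptosis fraction. Screening doses were chosen to leave most cells alive, and resting and induced cleaved-PARP levels differ strongly between cell lines.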

Columns and labels:
Test in all cases: cleaved PARP positive nuclei fraction relative to DMSO control; melanoma cells; higher = more apoptosis
Details in all cases: library dose: low library concentration; 72 h
CBRC034 = tested on: CBRC034 (line from a melanoma biopsy)
COLO792 = tested on: COLO792
COLO800 = tested on: COLO800
COLO829 = tested on: COLO829
G361 = tested on: G361
IPC-298 = tested on: IPC-298
IST-MEL1 = tested on: IST-MEL1
LB2518-MEL = tested on: LB2518-MEL
LOXIMVI = tested on: LOXIMVI
MZ2-MEL = tested on: MZ2-MEL
MeWo = tested on: MeWo
RPMI7951 = tested on: RPMI7951
RVH-421 = tested on: RVH-421
SkMel28 = tested on: SkMel28
SkMel30 = tested on: SkMel30
SkMel5 = tested on: SkMel5
UACC257 = tested on: UACC257
UACC62 = tested on: UACC62

| Compound | cleaved PARP positive nuclei fraction (CBRC034) [%] | cleaved PARP positive nuclei fraction (COLO792) [%] | cleaved PARP positive nuclei fraction (COLO800) [%] | cleaved PARP positive nuclei fraction (COLO829) [%] | cleaved PARP positive nuclei fraction (G361) [%] | cleaved PARP positive nuclei fraction (IPC-298) [%] | cleaved PARP positive nuclei fraction (IST-MEL1) [%] | cleaved PARP positive nuclei fraction (LB2518-MEL) [%] | cleaved PARP positive nuclei fraction (LOXIMVI) [%] | cleaved PARP positive nuclei fraction (MZ2-MEL) [%] | cleaved PARP positive nuclei fraction (MeWo) [%] | cleaved PARP positive nuclei fraction (RPMI7951) [%] | cleaved PARP positive nuclei fraction (RVH-421) [%] | cleaved PARP positive nuclei fraction (SkMel28) [%] | cleaved PARP positive nuclei fraction (SkMel30) [%] | cleaved PARP positive nuclei fraction (SkMel5) [%] | cleaved PARP positive nuclei fraction (UACC257) [%] | cleaved PARP positive nuclei fraction (UACC62) [%] |
| --- | --- | --- | --- | --- | --- | --- | --- | --- | --- | --- | --- | --- | --- | --- | --- | --- | --- | --- |
| Cc1cc(N2CCOCC2)cc2[nH]c(-c3c(NC[C@@H](O)c4cccc(Cl)c4)cc[nH]c3=O)nc12 + COc1cc2ncnc(Nc3ccc(Oc4ccccc4)cc3)c2cc1OC [SrcI1] (first compound 0.2 µM, partner dose 2 µM) | 90.6 | 106 | 172 | 44.8 | 86.4 | 46.4 | 83.4 | 232 | 54.7 | 232 | 66.2 | 107 | 32.2 | 135 | 31.3 | 127 | 157 | 105 |
| Nc1cccc2c1CN(C1CCC(=O)NC1=O)C2=O (stereo not given) [lenalidomide] + COc1ccc(COc2ccc(Cc3cnc(N)nc3N)cc2OC)cc1 [GW2580] (first compound 1 µM, partner dose 1 µM) | 98.8 | 156 | 145 | 89.9 | 75.7 | 86.6 | 134 | 92.8 | 1390 | 86.8 | 117 | 39.7 | 27 | 88.1 | 201 | 57.8 | 104 | 186 |
| Cc1cc(N2CCOCC2)cc2[nH]c(-c3c(NC[C@@H](O)c4cccc(Cl)c4)cc[nH]c3=O)nc12 + O=C1NC(=O)/C(=C/c2ccc(-c3ccc(F)cc3O)o2)S1 [AS252424] (first compound 0.2 µM, partner dose 1 µM) | 47 | 124 | 119 | 74.8 | 148 | 53.7 | 130 | 240 | 46.2 | 136 | 47.8 | 81.4 | 55.2 | 111 | 25 | 57.3 | 109 | 47.6 |
| Nc1cccc2c1CN(C1CCC(=O)NC1=O)C2=O (stereo not given) [lenalidomide] + CC(C)CCN1c2nc(Nc3cc(F)c(O)c(F)c3)ncc2N(C)C(=O)C1C [BID1870] (first compound 1 µM, partner dose 0.2 µM) | 100 | 89.4 | 66.3 | 84.5 | 70.3 | 139 | 88.8 | 193 | 94.8 | 55.5 | 85.5 | 31.9 | 83.3 | 22.6 | 49.3 | 169 | 76.5 | 207 |
| Cn1c(Nc2ccc(C(F)(F)F)cc2)nc2cc(Oc3ccnc(-c4ncc(C(F)(F)F)[nH]4)c3)ccc21 + N#Cc1c(O)c2c(-c3ccc(-c4ccccc4O)cc3)csc2[nH]c1=O [A769662] (first compound 0.08 µM, partner dose 2 µM) | 105 | 307 | 246 | 65.7 | 145 | 42.5 | 96.2 | 74.9 | 38.1 | 93.1 | 41.1 | 61.4 | 90.8 | 701 | 128 | 41.3 | 1710 | 173 |
| COCC[n+]1c2c(n(Cc3cnccn3)c1C)C(=O)c1ccccc1C2=O + Oc1nc(-c2ccc(C(F)(F)F)cc2)nc2c1CSCC2 [XAV939] (first compound 0.0004 µM, partner dose 2 µM) | 94.1 | 163 | 118 | 110 | 79.4 | 24.1 | 47.1 | 105 | 32.6 | 194 | 122 | 228 | 37.3 | 111 | 36.5 | 79.9 | 164 | 88.8 |
| OCCn1cc(-c2cnc3nnn(Cc4ccc5ncccc5c4)c3n2)cn1 + Cc1cc([N+](=O)[O-])ccc1NS(=O)(=O)c1cc(Cl)ccc1Cl [FH535] (first compound 1 µM, partner dose 1 µM) | 190 | 117 | 120 | 184 | 314 | 131 | 35.1 | 73.6 | 67.2 | 72.2 | 74.9 | 82.2 | 112 | 84 | 45 | 79.2 | 103 | 106 |
| Cc1cc(N2CCOCC2)cc2[nH]c(-c3c(NC[C@@H](O)c4cccc(Cl)c4)cc[nH]c3=O)nc12 + COc1ccc(-c2ccc3c(N4CCOCC4)nc(N4C[C@@H](C)O[C@@H](C)C4)nc3n2)cc1CO [KU0063794] (first compound 0.2 µM, partner dose 0.02 µM) | 80.4 | 158 | 197 | 55 | 107 | 106 | 153 | 87.3 | 132 | 167 | 40.8 | 83 | 85 | 98.3 | 661 | 61.4 | 149 | 40.9 |
| Cc1nc(Nc2ncc(C(=O)Nc3c(C)cccc3Cl)s2)cc(N2CCN(CCO)CC2)n1 [dasatanib] + COc1ccc(-c2ccc3c(N4CCOCC4)nc(N4C[C@@H](C)O[C@@H](C)C4)nc3n2)cc1CO [KU0063794] (first compound 0.004 µM, partner dose 0.02 µM) | 136 | 124 | 198 | 92 | 70.5 | 96.4 | 104 | 92.7 | 57.4 | 124 | 231 | 66.5 | 113 | 148 | 30.2 | 57.4 | 217 | 57.9 |
| O=C(Nc1cccc(Cl)c1)Nc1ncc(CCNc2ncnc3ccsc23)s1 + O=C(O)C(=O)Nc1sc2c(c1C(=O)O)CCNC2 [TCS401] (first compound 0.0008 µM, partner dose 1.66667 µM) | 86.4 | 67 | 122 | 110 | 101 | 39.1 | 131 | 82 | 33.4 | 187 | 73.9 | 131 | 128 | 150 | 54.8 | 60.2 | 76.7 | 43.6 |
| COc1cc(Nc2ncc(F)c(Nc3ccc4c(n3)NC(=O)C(C)(C)O4)n2)cc(OC)c1OC [Tamatinib] + CC(C)CCN1c2nc(Nc3cc(F)c(O)c(F)c3)ncc2N(C)C(=O)C1C [BID1870] (first compound 0.4 µM, partner dose 0.2 µM) | 47.6 | 301 | 160 | 102 | 144 | 207 | 36.5 | 372 | 1530 | 108 | 57.4 | 46.1 | 17.6 | 153 | 282 | 168 | 260 | 193 |
| Cn1cncc1[C@@](N)(c1ccc(Cl)cc1)c1ccc2c(c1)c(-c1cccc(Cl)c1)cc(=O)n2C [tipifarnib] + COc1cc2ncnc(Nc3ccc(Oc4ccccc4)cc3)c2cc1OC [SrcI1] (first compound 0.01 µM, partner dose 2 µM) | 109 | 114 | 108 | 76.2 | 158 | 78.7 | 91.2 | 94.5 | 23.3 | 30.6 | 158 | 168 | 82.8 | 181 | 28.4 | 58.3 | 103 | 109 |
| CO[C@@H]1[C@H](N(C)C(=O)c2ccccc2)C[C@H]2O[C@]1(C)n1c3ccccc3c3c4c(c5c6ccccc6n2c5c31)C(=O)NC4 [Midostaurin] + N#Cc1c(O)c2c(-c3ccc(-c4ccccc4O)cc3)csc2[nH]c1=O [A769662] (first compound 0.08 µM, partner dose 2 µM) | 99.9 | 241 | 147 | 119 | 77.7 | 43 | 208 | 77.7 | 67.3 | 117 | 37.8 | 43.2 | 77.3 | 73.6 | 177 | 68.6 | 53.9 | 178 |
| C[C@@H]1CCN(C(=O)CC#N)C[C@@H]1N(C)c1ncnc2[nH]ccc12 + CCc1ccc(CCOc2ccc(CC3SC(=O)NC3=O)cc2)nc1 [pioglitazone] (first compound 1 µM, partner dose 2 µM) | 44.9 | 192 | 48 | 109 | 104 | 82.9 | 131 | 84.1 | 658 | 138 | 49.9 | 111 | 103 | 99.1 | 114 | 68.5 | 93.7 | 108 |
| COCC[n+]1c2c(n(Cc3cnccn3)c1C)C(=O)c1ccccc1C2=O + CCCCCCCCCCCC1=C(O)C(=O)C=C(O)C1=O [Embelin] (first compound 0.0004 µM, partner dose 1.2 µM) | 42.3 | 128 | 97.5 | 84.6 | 89.4 | 90.4 | 46.2 | 86.4 | 131 | 248 | 111 | 136 | 52.4 | 83.5 | 51 | 398 | 16 | 39.7 |
